Data as given in PubChem BioAssay AID1053208 (Peter MacCallum Cancer Centre, 2014)
Screen: 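Genes whose silencing cuts survival of bone tumour cells only with doxorubicin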 (primary screen). Cell system: mouse osteosarcoma cells, early-passage culture from an engineered mouse model of fibroblastic bone tumour. Reagent: siRNA pool against mouse genes, 40 nM. Duration: about 120 h (48 h before drug, then 72 h with drug). Challenge: doxorubicin 100 nM for 72 h, roughly 30-40% inhibitory dose. Measured: 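Viability read as ATP luminescence after 72 h of 100 nM doxorubicin or none, duplicate wells averaged, scaled to non-targeting siRNA, then expressed as robust z-scores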. Reading the numbers: viability z-score with doxorubicin: higher = more viable cells under doxorubicin; viability z-score without drug: higher = more viable cells with knock-down alone. Rule for the call: 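Called active if knock-down leaves viability unchanged without drug (z within -2 to 2) but lowers it with doxorubicin (z at or under -2)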.
Shown is an unselected part of about 17,000 reagents tested. In the full data, 788 (4.7%) were called active. 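Calls rest on z-score classes alone; an extra cut-off of viability at most 70% of control was not applied to them.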 Further read-outs or replicates are left out here. No sequences are given here.

After knock-down of Prdx6b, the screen gave combined z-score class no change with or without drug; viability z-score with doxorubicin 0.22; viability z-score without drug 0.51; inactive. After knock-down of Ttyh2, the screen gave combined z-score class no change with or without drug; viability z-score with doxorubicin -0.22; viability z-score without drug -0.34; inactive. B3gnt4 scored combined z-score class no change with or without drug; viability z-score with doxorubicin 0.56; viability z-score without drug 1.69; inactive. For Rbsn, the entry reads combined z-score class no change with or without drug; viability z-score with doxorubicin 0; viability z-score without drug -0.17; inactive. After knock-down of Tbx15, the record shows combined z-score class no change with or without drug; viability z-score with doxorubicin -1.12; viability z-score without drug -0.17; inactive. Depletion of Klk1b1 resulted in: combined z-score class no change with or without drug; viability z-score with doxorubicin 0.22; viability z-score without drug 0.51; inactive.

Plec showed combined z-score class no change with or without drug; viability z-score with doxorubicin -0.22; viability z-score without drug 0.17; inactive. For Echdc2, the entry reads combined z-score class no change with or without drug; viability z-score with doxorubicin 1.01; viability z-score without drug 1.85; inactive. After knock-down of Zscan20, the screen gave combined z-score class no change with or without drug; viability z-score with doxorubicin -1.8; viability z-score without drug 0.34; inactive. For Or6n1 the deposit lists combined z-score class no change with or without drug; viability z-score with doxorubicin 0.45; viability z-score without drug 0.34; inactive. Knock-down of Fgf8 gave: combined z-score class no change with or without drug; viability z-score with doxorubicin -0.34; viability z-score without drug 0.67; inactive. After knock-down of Tssk4 the results were combined z-score class no change with or without drug; viability z-score with doxorubicin 1.35; viability z-score without drug 1.35; inactive.

After knock-down of S100a14, the screen gave combined z-score class no change with or without drug; viability z-score with doxorubicin -0.56; viability z-score without drug 0.34; inactive. With knock-down of Niban2 the results were combined z-score class no change with or without drug; viability z-score with doxorubicin -1.12; viability z-score without drug -0.34; inactive. Depletion of Patz1 resulted in: combined z-score class no change with or without drug; viability z-score with doxorubicin -0.22; viability z-score without drug 0.34; inactive. Against Ube2n the deposit lists combined z-score class no change with or without drug; viability z-score with doxorubicin -0.9; viability z-score without drug 1.85; inactive. D030074E01RIK showed combined z-score class no change with or without drug; viability z-score with doxorubicin 1.12; viability z-score without drug -0.17; inactive. With knock-down of Mrgpra4, the record shows combined z-score class no change with or without drug; viability z-score with doxorubicin -1.12; viability z-score without drug -1.18; inactive.

With knock-down of Usp18 the results were combined z-score class no change with or without drug; viability z-score with doxorubicin 0; viability z-score without drug 0.84; inactive.

Part of the list above in another layout.
| gene | combined z-score class | viability z-score with doxorubicin | viability z-score without drug | Call |
| --- | --- | --- | --- | --- |
| Rbsn | no change with or without drug | 0 | -0.17 | inactive |
| Tbx15 | no change with or without drug | -1.12 | -0.17 | inactive |
